Laboratory results: PubChem BioAssay AID504786 (Drosophila RNAi Screening Center, 2011)

Aim: 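Positive regulators of HIF-driven reporter output in Drosophila cells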 (primary screen)
Cells: Drosophila S2 cells with a stable HIF luciferase reporter
Knock-down reagent: long dsRNA against Drosophila genes, about 0.2 µg dsRNA per well of a 384-well plate
Timing: three days of knock-down, then 20 h of DFO before reading
Treatment: desferrioxamine (DFO) at 100 µM, an iron chelator that mimics hypoxia, for 20 h
Measured: 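Firefly luciferase driven by the mouse ldh-a hypoxia-response element, measured after 20 h of 100 µM DFO; z-scores per plate, higher means more signal lost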
Direction: z-score: higher = stronger loss of HIF reporter signal
The deposit covers about 21,000 reagents; below is an unselected part of those with a known target gene and a result. 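Primary screen; positive scores mean lost reporter signal, so the sign may be inverted from the usual convention.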 Names joined by + are all predicted targets of the reagent.

For CG6688 [DRSC16094], the entry reads z-score, replicate 1 = -0.3; z-score, replicate 2 = -0.5.
For lectin-28C [DRSC03010], the entry reads z-score, replicate 1 = -0.3; z-score, replicate 2 = -0.5.
For vsg [DRSC10219] the deposit lists z-score, replicate 1 = 0.6; z-score, replicate 2 = 1.1.
Knock-down of DptA [DRSC07404] resulted in: z-score, replicate 1 = -0.1; z-score, replicate 2 = 0.2.
Silencing of Bruce [DRSC16015] resulted in: z-score, replicate 1 = -0.4; z-score, replicate 2 = -0.8.
With knock-down of CG9672 [DRSC20201], the record shows z-score, replicate 1 = -0.3; z-score, replicate 2 = 0.3.
After knock-down of CG12693 [DRSC17882], the record shows z-score, replicate 1 = -0.3; z-score, replicate 2 = -0.2.
For CG3795 [DRSC18593] the deposit lists z-score, replicate 1 = -0.2; z-score, replicate 2 = -0.9.
CG12499 [DRSC14521] showed z-score, replicate 1 = 2.3; z-score, replicate 2 = 3.8.
CG15098 [DRSC06527] showed z-score, replicate 1 = 1.6; z-score, replicate 2 = 1.8.
With knock-down of rdgBbeta [DRSC07672] the results were z-score, replicate 1 = -0.3; z-score, replicate 2 = -0.3.
Against Or45b [DRSC07488], the entry reads z-score, replicate 1 = -0.3; z-score, replicate 2 = -0.4.
With knock-down of Elk [DRSC07608] the results were z-score, replicate 1 = -0.1; z-score, replicate 2 = 0.1.
CG5937 [DRSC18392] gave z-score, replicate 1 = -0.3; z-score, replicate 2 = 0.2.
CG17598 [DRSC20636] gave z-score, replicate 1 = -0.3; z-score, replicate 2 = 0.3.
After knock-down of CG7841 [DRSC10922] the results were z-score, replicate 1 = -0.3; z-score, replicate 2 = -0.5.
With knock-down of LManVI [DRSC03224] the results were z-score, replicate 1 = -0.2; z-score, replicate 2 = 0.1.
CG8006 [DRSC10949] scored z-score, replicate 1 = -0.1; z-score, replicate 2 = -0.2.

Already shown: an excerpt of the list.
Bruce [DRSC16015] | z-score, replicate 1 = -0.4; z-score, replicate 2 = -0.8
CG9672 [DRSC20201] | z-score, replicate 1 = -0.3; z-score, replicate 2 = 0.3

The list goes on.
Ance-4 [DRSC07104] gave z-score, replicate 1 = -0.2; z-score, replicate 2 = -0.7.
Knock-down of CG15337 [DRSC18020] resulted in: z-score, replicate 1 = -0.3; z-score, replicate 2 = -0.8.
After knock-down of Paip2 [DRSC14504] the results were z-score, replicate 1 = -0.4; z-score, replicate 2 = -0.6.
CG8065 [DRSC10959] showed z-score, replicate 1 = -0.1; z-score, replicate 2 = 0.2.
For eIF5 [DRSC20165], the values are z-score, replicate 1 = 0.3; z-score, replicate 2 = 1.9.
TwdlY [DRSC19153] showed z-score, replicate 1 = -0.2; z-score, replicate 2 = -0.2.
Depletion of CG5273 [DRSC18612] resulted in: z-score, replicate 1 = -0.3; z-score, replicate 2 = -0.2.
For CG15841 (retired record) + Acp33A [DRSC01859], the entry reads z-score, replicate 1 = -0.4; z-score, replicate 2 = -0.2.
After knock-down of Ugt49C1 [DRSC04252], the screen gave z-score, replicate 1 = -0.3; z-score, replicate 2 = -0.4.
Knock-down of CG14017 [DRSC02348] resulted in: z-score, replicate 1 = -0.2; z-score, replicate 2 = 0.1.
CG1847 [DRSC19810] scored z-score, replicate 1 = -0.2; z-score, replicate 2 = -0.4.
For CG7601 [DRSC14131], the values are z-score, replicate 1 = -0.4; z-score, replicate 2 = 0.
With knock-down of Inx6 [DRSC20579] the results were z-score, replicate 1 = 0.1; z-score, replicate 2 = 0.7.
Cyp4p2 [DRSC07373] gave z-score, replicate 1 = -0.2; z-score, replicate 2 = 0.3.
Knock-down of CG13390 [DRSC02261] gave: z-score, replicate 1 = 0; z-score, replicate 2 = 0.
After knock-down of Lgr4 [DRSC18969], the screen gave z-score, replicate 1 = 0; z-score, replicate 2 = 0.2.
Lgr4 [DRSC18970] gave z-score, replicate 1 = -0.3; z-score, replicate 2 = -0.1.
For Lgr4 [DRSC19884], the entry reads z-score, replicate 1 = -0.2; z-score, replicate 2 = -0.8.
Against CG14332 [DRSC14811], the values are z-score, replicate 1 = -0.3; z-score, replicate 2 = -0.4.
Knock-down of ham [DRSC02070] gave: z-score, replicate 1 = -0.2; z-score, replicate 2 = -0.2.
After knock-down of ham [DRSC02512] the results were z-score, replicate 1 = -0.3; z-score, replicate 2 = -0.3.
Silencing of ham [DRSC02513] came out at: z-score, replicate 1 = -0.3; z-score, replicate 2 = -0.5.
Depletion of CG4301 [DRSC19886] came out at: z-score, replicate 1 = -0.3; z-score, replicate 2 = -0.6.
Knock-down of Ugt37B1 [DRSC03225] resulted in: z-score, replicate 1 = -0.3; z-score, replicate 2 = -0.4.
Silencing of Eip63E [DRSC08658] gave: z-score, replicate 1 = -0.5; z-score, replicate 2 = -0.9.
For Smg6 [DRSC16029], the values are z-score, replicate 1 = -0.2; z-score, replicate 2 = -0.1.
Silencing of pico [DRSC19430] resulted in: z-score, replicate 1 = -0.3; z-score, replicate 2 = -0.4.
Depletion of CG31178 [DRSC14590] resulted in: z-score, replicate 1 = -0.1; z-score, replicate 2 = 0.1.
Against CG3739 [DRSC15510], the entry reads z-score, replicate 1 = -0.7; z-score, replicate 2 = -0.3.
After knock-down of wge [DRSC15246], the screen gave z-score, replicate 1 = -0.3; z-score, replicate 2 = -0.5.
With knock-down of wge [DRSC15672] the results were z-score, replicate 1 = -0.2; z-score, replicate 2 = -0.1.
After knock-down of CG15650 [DRSC04241] the results were z-score, replicate 1 = -0.4; z-score, replicate 2 = -0.6.
After knock-down of CG4576 [DRSC15604], the screen gave z-score, replicate 1 = -0.3; z-score, replicate 2 = -0.4.
